Results from the supplement of paper PMC3741180, “A Novel High Throughput Biochemical Assay to Evaluate the HuR Protein-RNA Complex Formation” (PLoS ONE, 2013).
This is one part of the list. This data set is noisy: repeats of one test often differ as much as different tests do.

Amino acid sequences for entries named in this document (tags omitted).
UniProt Q15717, whole entry: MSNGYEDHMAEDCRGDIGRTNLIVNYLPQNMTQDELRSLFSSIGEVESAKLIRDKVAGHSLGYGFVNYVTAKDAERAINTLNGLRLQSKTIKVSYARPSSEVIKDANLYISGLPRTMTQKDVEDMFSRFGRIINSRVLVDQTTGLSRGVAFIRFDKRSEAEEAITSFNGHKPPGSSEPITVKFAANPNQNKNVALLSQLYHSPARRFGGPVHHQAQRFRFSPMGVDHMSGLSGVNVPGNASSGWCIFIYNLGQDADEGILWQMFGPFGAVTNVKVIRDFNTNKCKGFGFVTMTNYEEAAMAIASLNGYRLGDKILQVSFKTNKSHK

The compounds below were run against HuR (ELAVL1) - TNFalpha ARE RNA complex (UniProt Q15717) (assay: AlphaScreen HuR-RNA complex signal Z-score relative to positive (Bi-TNF, DMSO) controls (Z-score (SD units of positive control)); higher = more complex signal). Conditions: screen stage: primary screen; compound concentration: 25 nM.

SMILES | AlphaScreen HuR-RNA complex signal Z-score
CCN(CC)CC#CCOC(=O)C(O)(c1ccccc1)C1CCCCC1 (stereo not drawn) | 2.81
CC(C)CCC[C@@H](C)[C@H]1CC[C@H]2[C@@H]3CC=C4CC(=O)CC[C@]4(C)[C@H]3CC[C@]12C | 1.59
CC(=O)OC1CCC23CC1(C)CCC2C(C)(C)CC3OC(C)=O (stereo not drawn) | 2.02
C=CC[C@@H]1/C=C(\C)C[C@H](C)C[C@H](OC)[C@H]2O[C@@](O)(C(=O)C(=O)N3CCCC[C@H]3C(=O)O[C@H](/C(C)=C/[C@@H]3CC[C@@H](O)[C@H](OC)C3)[C@H](C)[C@@H](O)CC1=O)[C@H](C)C[C@@H]2OC | 1.07
NC[C@H]1O[C@H](O[C@H]2[C@H](O[C@@H]3O[C@H](CO)[C@@H](O)[C@H]3O)[C@@H](O)[C@H](N)C[C@@H]2N)[C@H](N)[C@@H](O)[C@@H]1O | 1.1
COc1ccc2[nH]cc(CCNC(C)=O)c2c1 | 0.126
O=C([O-])c1ccccc1O.[Na+] | 3.07
CCCC(=O)Nc1ncnc2c1ncn2[C@@H]1O[C@@H]2COP(=O)(O)O[C@H]2[C@H]1OC(=O)CCC | 1.57
CC(=O)N[C@@H](CCC(=O)O)C(=O)O | 1.6
CN1CCCC(n2nc(Cc3ccc(Cl)cc3)c3ccccc3c2=O)CC1 (stereo not drawn) | 3.1
O=C(CNC(=O)c1ccc(Cl)cc1)NO | 0.581
NC(=O)N/N=C/c1ccc([N+](=O)[O-])o1 | 5.95
CO[C@@H]1[C@@H](OC(N)=O)[C@@H](O)[C@H](Oc2ccc3c(O)c(NC(=O)c4ccc(O)c(CC=C(C)C)c4)c(=O)oc3c2C)OC1(C)C | -5.66
O=C(NCO)c1cccnc1 | 2.07
CC(=O)Oc1cccc(O)c1 | -0.347
C/C1=C\CCC(=O)C2CC(C)(C)C2CC1 (stereo not drawn) | 2.02
CCN1CCN(C(=O)N[C@@H](C(=O)N[C@@H]2C(=O)N3[C@@H]2SC(C)(C)[C@@H]3C(=O)O)c2ccccc2)C(=O)C1=O | -0.592

Laid out differently: results already given.
SMILES,AlphaScreen HuR-RNA complex signal Z-score
O=C(NCO)c1cccnc1,2.07
CC(=O)Oc1cccc(O)c1,-0.347

Going on with the list:

SMILES | AlphaScreen HuR-RNA complex signal Z-score
OC[C@H]1O[C@@H](Oc2ccc(O)cc2)[C@H](O)[C@@H](O)[C@@H]1O | 1.6
Nc1ccc(S(=O)(=O)c2ccc(N)cc2)cc1 | -2.32
OCCN1CCN(CCCN2c3ccccc3Sc3ccc(Cl)cc32)CC1 | 1.22
CN(C)CCc1c[nH]c2ccc(Cn3cncn3)cc12 | -6.55
COc1cc(/C=C/C(=O)O)cc(OC)c1OC | 2.22
CC1(C)OC(=O)NC1=O | -2.88
CCC[C@H](N[C@@H](C)C(=O)N1[C@H](C(=O)O)C[C@@H]2CCCC[C@@H]21)C(=O)OCC | 1.79
Cn1nnnc1SCC1=C(C(=O)O)N2C(=O)[C@@H](NC(=O)[C@H](O)c3ccccc3)[C@H]2SC1 | 1.01
COc1ccc(NS(=O)(=O)c2ccc(N)cc2)nn1 | 1.59
Nc1ccc(C(=O)NCC(=O)O)cc1 | 0.736
NC(C(=O)O)C(O)C(=O)O (stereo not drawn) [d,l-threo-3-HYDROXYASPARTIC ACID] | -4.91
CC(=O)Oc1cccc2c1C(=O)c1c(OC(C)=O)cc(C(=O)O)cc1C2=O | 0.985
Cc1ncc(CSSCc2cnc(C)c(O)c2CO)c(CO)c1O | 2.25
COC(=O)C1=CO[C@@H](O[C@@H]2O[C@H](CO)[C@@H](O)[C@H](O)[C@H]2O)[C@@H]2[C@@H](C)[C@@H](O)C[C@H]12 | 2.3
N[C@H]1C(O)O[C@H](CO)[C@@H](O)[C@@H]1O (stereo partly drawn) | -6.29
C=C1C[C@H]2[C@@H]3C=C(C)C4=CC(=O)CC[C@]4(C)[C@H]3CC[C@]2(C)[C@@]1(OC(C)=O)C(C)=O | 1.05
